For the assay, the system named is L1210 leukemia ip in BDF1 mice, survival T/C. In words: NCI In Vivo Anticancer Drug Screen. Data for tumor model L1210 Leukemia (intraperitoneal) in B6D2F1 (BDF1) mice. The conditions noted are these: T/C endpoint: mean survival time, higher T/C = longer survival.
Setting [1] is: dose: 400.0 mg/kg/injection, schedule: Q04DX002 (ip), vehicle: saline with Tween-80.
The mark [2] stands for this setting: dose: 200.0 mg/kg/injection, schedule: Q04DX003 (ip), vehicle: Klucel (hydroxypropylcellulose) (HPC).
[3] abbreviates: dose: 400.0 mg/kg/injection, schedule: Q04DX003 (ip), vehicle: Klucel (hydroxypropylcellulose) (HPC).
The mark [4] stands for this setting: dose: 200.0 mg/kg/injection, schedule: Q04DX002 (ip), vehicle: saline.
Where [5] appears, read: dose: 400.0 mg/kg/injection, schedule: Q01DX009 (ip), vehicle: Klucel (hydroxypropylcellulose) (HPC).
The mark [6] stands for this setting: dose: 75.0 mg/kg/injection, schedule: Q01DX009 (ip), vehicle: saline.
Where [7] appears, read: dose: 150.0 mg/kg/injection, schedule: Q01DX001 (ip), vehicle: saline.

Molecules are shown by their SMILES. The list does not hold the whole screen: it gathers tests that were run many times, whatever their T/C, doses with no T/C, and many T/C values between a quarter and a half above the control. Other doses and runs of a compound stand elsewhere. T/C: endpoint of the treated group in % of that of the vehicle group. Some doses have a count of surviving animals in place of a T/C: the source files T/C as zero there, which appears to mark a toxic dose or a test without result, not a measured value. Some doses without a T/C left all or most animals alive at the check, yet need not have been tolerated: the source hardly ever lists a survival T/C far under the control, and the zero likely stands for such cases as well. Survivors were counted at the toxicity check, usually on the fifth day, unless a day is given; later deaths do not show. Schedules are NCI's codes, read here as Q, the interval in days (D) or hours (H), X, the number of doses. Some schedules carry Z or #; the key to these is not given. For survival time, the PubChem record calls one and a half times the control and up active, and a quarter to a half above the control has no call in these data; cut-offs in other NCI protocols can differ. Some T/C values are followed by the survivors on the day toxicity was checked, most often the fifth; where none is given, no animal had died by that day.

In the case of `CCCCCCC[CH2][Sn]1([CH2]CCCCCCC)[O]OC(c2ccccc2)[O]1` (stereo not drawn), the survivor count is 0 of 3 (dose: 100.0 mg/kg/injection, schedule: Q04DX002 (ip), vehicle: saline with Tween-80); 0 of 3 (dose: 200.0 mg/kg/injection, schedule: Q04DX002 (ip), vehicle: saline with Tween-80); 0 of 3 under setting [1].
As to `CS(=O)(=O)OCCN(CCOS(C)(=O)=O)c1ccc(C=Nc2cccc(Br)c2)cc1`, the T/C (dose: 20.0 mg/kg/injection, schedule: Q04DX003 (ip), vehicle: Klucel (hydroxypropylcellulose) (HPC)) was 143 % of control and the T/C (dose: 40.0 mg/kg/injection, schedule: Q04DX003 (ip), vehicle: Klucel (hydroxypropylcellulose) (HPC)) was 145 % of control. Also, the survivor count reads like this: (dose: 80.0 mg/kg/injection, schedule: Q04DX003 (ip), vehicle: Klucel (hydroxypropylcellulose) (HPC)) 6 of 6; under setting [2], 4 of 6; under setting [3], 4 of 6.
As for `CCC1=C(c2cc(Cl)c3ccccc3c2OCC(=O)O)OC(CC)(C(=O)c2cc(Cl)c3ccccc3c2OCC(=O)O)CC1` (stereo not drawn), the survivor count reads like this: (dose: 124.0 mg/kg/injection, schedule: Q01DX Z (ip), vehicle: other) 6 of 6; (dose: 248.0 mg/kg/injection, schedule: Q01DX Z (ip), vehicle: other) 0 of 6; (dose: 400.0 mg/kg/injection, schedule: Q04DX003 (ip), vehicle: saline with Tween-80) 4 of 6.
For `COc1ccc(/C(=N/Nc2ccccc2)C(C)C(O)(C(F)(F)F)C(F)(F)F)cc1` (stereo not drawn), the survivor count under setting [3] is 6 of 6.
Consider `COc1cc(Nc2c3ccccc3nc3ccccc23)ccc1NS(C)(=O)=O`, for which the T/C (dose: 5.0 mg/kg/injection, schedule: Q01DX009 (ip), vehicle: saline with Tween-80) was 141 % of control. Moreover, the survivor count is reported as 9 of 10 (dose: 20.0 mg/kg/injection, schedule: Q01DX009 (ip), vehicle: saline with Tween-80) and 0 of 10 (dose: 40.0 mg/kg/injection, schedule: Q01DX009 (ip), vehicle: saline with Tween-80).
`C#CCN(CCCC)CCCC`: the survivor count under setting [1] is 0 of 3.
As to `CS(=O)(=O)OCC(=O)NCC(O)CNC(=O)COS(C)(=O)=O`, the T/C (dose: 18.8 mg/kg/injection, schedule: Q01DX015 (ip), vehicle: saline) is 125 % of control; the T/C (dose: 36.0 mg/kg/injection, schedule: Q01DX009 (ip), vehicle: saline) was 126 % of control; the T/C (dose: 37.5 mg/kg/injection, schedule: Q01DX015 (ip), vehicle: saline) was 125 % of control; the T/C (dose: 54.0 mg/kg/injection, schedule: Q01DX009 (ip), vehicle: saline) was 139 % of control. In addition, the survivor count by setting is: (dose: 256.0 mg/kg/injection, schedule: Q01DX009 (ip), vehicle: saline) 2 of 6; (dose: 400.0 mg/kg/injection, schedule: Q01DX009 (ip), vehicle: saline) 0 of 6; (dose: 600.0 mg/kg/injection, schedule: Q01DX009 (ip), vehicle: saline) 0 of 6.
Take `C=CC[N+](CCO)(CCO)CCCCCCCCCCCCCCCCCC`: the survivor count is recorded as 0 of 3 (dose: 50.0 mg/kg/injection, schedule: Q04DX002 (ip), vehicle: saline); 2 of 3 (dose: 100.0 mg/kg/injection, schedule: Q04DX002 (ip), vehicle: saline); 0 of 3 under setting [4]; 0 of 3 (dose: 400.0 mg/kg/injection, schedule: Q04DX002 (ip), vehicle: saline).
On to `COc1ccc(OC)c(NC(=O)N(CCO)C2CCCCC2)c1`, for which the survivor count under setting [2] is 6 of 6.
In the case of `CCCCCCCC(O)CCC` (stereo not drawn), under setting [5], the survivor count was 4 of 6.
On to `CCC(CO)Nc1nc2ccccc2c2ccccc12` (stereo not drawn), for which the survivor count under setting [5] is listed as 0 of 6.
On to `CC1(C)N=C(N)N=C(N)N1c1cccc(CCCCc2ccccc2)c1`, for which the survivor count (dose: 80.0 mg/kg/injection, schedule: Q01DX001 (ip), vehicle: saline) was 0 of 4; the survivor count (dose: 100.0 mg/kg/injection, schedule: Q01DX001 (ip), vehicle: saline) was 0 of 4; the survivor count (dose: 200.0 mg/kg/injection, schedule: Q01DX001 (ip), vehicle: saline) is recorded as 0 of 4; the survivor count (dose: 400.0 mg/kg/injection, schedule: Q01DX001 (ip), vehicle: saline) is 0 of 4.
On to `CSC12OCC(O1)C1OC(C)(C)OC(C=O)C1O2` (stereo not drawn), for which the survivor count under setting [4] is recorded as 3 of 3.
On to `CN(C)CCCN1c2ccccc2Sc2ccccc21`, for which the T/C under setting [6] is 125 % of control [5 of 6 alive]. Also, the survivor count under setting [6] is recorded as 1 of 6; the survivor count under setting [7] is on record as 2 of 6; the survivor count (dose: 150.0 mg/kg/injection, schedule: Q01DX009 (ip), vehicle: saline) is given as 0 of 6; the survivor count (dose: 150.0 mg/kg/injection, schedule: Q04DX003 (ip), vehicle: saline) is 2 of 4; the survivor count (dose: 300.0 mg/kg/injection, schedule: Q04DX003 (ip), vehicle: saline) was 0 of 4.
In the case of `CC1=C(O)C(=O)C=C2C1=CC=C1[C@@]2(C)CC[C@@]2(C)[C@@H]3C[C@](C)(C(=O)O)CC[C@]3(C)CC[C@]12C`, the survivor count runs as follows: (dose: 40.0 mg/kg/injection, schedule: Q01DX001 (ip), vehicle: carboxymethylcellulose (CMC)) 0 of 4; (dose: 50.0 mg/kg/injection, schedule: Q01DX001 (ip), vehicle: carboxymethylcellulose (CMC)) 0 of 6; (dose: 80.0 mg/kg/injection, schedule: Q01DX001 (ip), vehicle: carboxymethylcellulose (CMC)) 0 of 4; (dose: 100.0 mg/kg/injection, schedule: Q01DX001 (ip), vehicle: carboxymethylcellulose (CMC)) 0 of 6; (dose: 200.0 mg/kg/injection, schedule: Q01DX001 (ip), vehicle: carboxymethylcellulose (CMC)) 0 of 6; (dose: 400.0 mg/kg/injection, schedule: Q01DX001 (ip), vehicle: carboxymethylcellulose (CMC)) 0 of 6.
For the compound `O=Cc1cc(C(=O)c2ccccn2)c2cc(Cl)cc(Cl)c2n1`, the survivor count under setting [5] is recorded as 2 of 6.
With `OC(CSc1ccccc1)(c1ccccc1)c1ccccc1`, the T/C (dose: 225.0 mg/kg/injection, schedule: Q03DX002 (ip), vehicle: saline with Tween-80) is 128 % of control.
Consider `O=[N+]([O-])c1csc2ccccc12`, for which the survivor count (dose: 200.0 mg/kg/injection, schedule: Q01DX009 (ip), vehicle: Klucel (hydroxypropylcellulose) (HPC)) is 1 of 6 and the survivor count under setting [5] is 1 of 6.
With `C[N+]1(C)C2CCCC1CC(=O)C2`, the survivor count runs as follows: (dose: 75.0 mg/kg/injection, schedule: Q01DX001 (ip), vehicle: saline) 0 of 6; under setting [7], 0 of 6; (dose: 300.0 mg/kg/injection, schedule: Q01DX001 (ip), vehicle: saline) 0 of 6.
Regarding `O=C1N/C(=N\OCc2ccccc2)CC(NOCc2ccccc2)N1C1OC(CO)C(O)C1O` (stereo not drawn), the survivor count (dose: 400.0 mg/kg/injection, schedule: Q04DX003 (ip), vehicle: saline) is reported as 4 of 4.
As to `O=C(Nc1ccc(C2=NCCN2)cc1)C(=O)Nc1ccc(C2=NCCN2)cc1`, the survivor count (dose: 120.0 mg/kg/injection, schedule: Q01DX Z (ip), vehicle: saline) is given as 0 of 6.
In the case of `c1coc(-c2ncc3cnccn23)c1`, the survivor count (dose: 200.0 mg/kg/injection, schedule: Q01DX005 (ip), vehicle: saline) is 0 of 4 and the survivor count (dose: 400.0 mg/kg/injection, schedule: Q01DX005 (ip), vehicle: saline) is 0 of 4.

The values above are taken from PubChem BioAssay AID248 (DTP/NCI, 2004).
